These results are taken from the supplement of paper PMC12819154, “High-throughput peptide-centric local stability assay extends protein–ligand identification to membrane proteins, tissues and bacteria” (Nature Structural & Molecular Biology, 2025).

The chains behind the UniProt entries cited, without tags or fusion partners. Where a name states a change or a piece, a line headed by the entry shows the natural chain unless it says otherwise.
UniProt Q6IRU2, whole entry: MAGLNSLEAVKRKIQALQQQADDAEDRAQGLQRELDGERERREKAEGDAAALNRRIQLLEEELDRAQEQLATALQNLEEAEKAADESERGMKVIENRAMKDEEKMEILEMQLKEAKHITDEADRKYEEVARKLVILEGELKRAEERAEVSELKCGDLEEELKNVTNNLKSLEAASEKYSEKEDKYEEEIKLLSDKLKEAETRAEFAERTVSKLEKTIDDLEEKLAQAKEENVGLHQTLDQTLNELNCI
UniProt Q6PDY0: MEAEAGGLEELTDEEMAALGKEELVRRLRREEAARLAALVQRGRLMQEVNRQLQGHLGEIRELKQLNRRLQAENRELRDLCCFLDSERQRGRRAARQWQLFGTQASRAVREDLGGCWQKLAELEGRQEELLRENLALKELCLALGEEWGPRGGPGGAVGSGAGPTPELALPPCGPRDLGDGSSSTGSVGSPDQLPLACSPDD
UniProt Q6NZQ2: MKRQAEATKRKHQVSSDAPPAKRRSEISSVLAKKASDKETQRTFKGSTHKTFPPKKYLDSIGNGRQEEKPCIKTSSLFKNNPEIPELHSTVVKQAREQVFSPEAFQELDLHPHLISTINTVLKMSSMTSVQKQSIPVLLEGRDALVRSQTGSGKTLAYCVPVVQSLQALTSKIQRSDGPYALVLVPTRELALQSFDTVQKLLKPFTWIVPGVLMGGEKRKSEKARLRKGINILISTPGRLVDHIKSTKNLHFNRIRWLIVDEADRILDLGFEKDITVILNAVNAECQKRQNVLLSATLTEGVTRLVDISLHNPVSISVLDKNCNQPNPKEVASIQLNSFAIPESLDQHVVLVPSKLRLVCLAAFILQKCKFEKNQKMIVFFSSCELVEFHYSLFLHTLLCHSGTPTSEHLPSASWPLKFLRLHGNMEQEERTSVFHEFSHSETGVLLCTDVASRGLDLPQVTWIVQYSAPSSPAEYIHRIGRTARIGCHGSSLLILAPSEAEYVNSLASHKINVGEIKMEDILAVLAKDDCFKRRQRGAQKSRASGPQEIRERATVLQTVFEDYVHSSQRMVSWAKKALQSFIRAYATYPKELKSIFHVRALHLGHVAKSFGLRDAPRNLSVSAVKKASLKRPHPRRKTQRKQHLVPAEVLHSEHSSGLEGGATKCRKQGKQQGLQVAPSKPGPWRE
UniProt Q6PGH0: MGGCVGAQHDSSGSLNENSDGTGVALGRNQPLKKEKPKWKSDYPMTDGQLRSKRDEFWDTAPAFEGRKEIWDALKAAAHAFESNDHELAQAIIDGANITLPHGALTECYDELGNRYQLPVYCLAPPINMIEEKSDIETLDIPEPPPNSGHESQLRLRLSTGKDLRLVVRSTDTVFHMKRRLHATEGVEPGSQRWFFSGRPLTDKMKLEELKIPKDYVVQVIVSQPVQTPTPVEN
UniProt Q6NZF1: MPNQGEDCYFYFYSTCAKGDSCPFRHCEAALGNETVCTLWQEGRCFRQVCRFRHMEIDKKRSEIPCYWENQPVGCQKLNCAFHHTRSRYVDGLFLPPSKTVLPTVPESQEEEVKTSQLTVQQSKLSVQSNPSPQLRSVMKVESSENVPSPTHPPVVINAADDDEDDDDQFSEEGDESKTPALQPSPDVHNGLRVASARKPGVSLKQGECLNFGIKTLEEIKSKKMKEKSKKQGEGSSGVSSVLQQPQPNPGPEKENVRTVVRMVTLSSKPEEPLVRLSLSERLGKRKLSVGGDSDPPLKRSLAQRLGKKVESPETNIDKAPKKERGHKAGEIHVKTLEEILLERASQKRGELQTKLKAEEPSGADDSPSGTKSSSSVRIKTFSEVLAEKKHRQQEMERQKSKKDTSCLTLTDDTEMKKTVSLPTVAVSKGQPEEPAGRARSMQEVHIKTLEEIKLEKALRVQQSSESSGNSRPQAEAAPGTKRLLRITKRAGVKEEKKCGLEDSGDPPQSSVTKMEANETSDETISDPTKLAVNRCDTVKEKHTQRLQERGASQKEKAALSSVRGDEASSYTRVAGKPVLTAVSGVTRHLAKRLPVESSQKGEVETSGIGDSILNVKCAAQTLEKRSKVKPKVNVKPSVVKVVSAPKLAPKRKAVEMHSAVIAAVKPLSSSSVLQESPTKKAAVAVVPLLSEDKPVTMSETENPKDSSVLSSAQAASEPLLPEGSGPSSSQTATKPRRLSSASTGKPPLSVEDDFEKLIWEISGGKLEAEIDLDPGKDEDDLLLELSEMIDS
UniProt Q6PHU5, whole entry: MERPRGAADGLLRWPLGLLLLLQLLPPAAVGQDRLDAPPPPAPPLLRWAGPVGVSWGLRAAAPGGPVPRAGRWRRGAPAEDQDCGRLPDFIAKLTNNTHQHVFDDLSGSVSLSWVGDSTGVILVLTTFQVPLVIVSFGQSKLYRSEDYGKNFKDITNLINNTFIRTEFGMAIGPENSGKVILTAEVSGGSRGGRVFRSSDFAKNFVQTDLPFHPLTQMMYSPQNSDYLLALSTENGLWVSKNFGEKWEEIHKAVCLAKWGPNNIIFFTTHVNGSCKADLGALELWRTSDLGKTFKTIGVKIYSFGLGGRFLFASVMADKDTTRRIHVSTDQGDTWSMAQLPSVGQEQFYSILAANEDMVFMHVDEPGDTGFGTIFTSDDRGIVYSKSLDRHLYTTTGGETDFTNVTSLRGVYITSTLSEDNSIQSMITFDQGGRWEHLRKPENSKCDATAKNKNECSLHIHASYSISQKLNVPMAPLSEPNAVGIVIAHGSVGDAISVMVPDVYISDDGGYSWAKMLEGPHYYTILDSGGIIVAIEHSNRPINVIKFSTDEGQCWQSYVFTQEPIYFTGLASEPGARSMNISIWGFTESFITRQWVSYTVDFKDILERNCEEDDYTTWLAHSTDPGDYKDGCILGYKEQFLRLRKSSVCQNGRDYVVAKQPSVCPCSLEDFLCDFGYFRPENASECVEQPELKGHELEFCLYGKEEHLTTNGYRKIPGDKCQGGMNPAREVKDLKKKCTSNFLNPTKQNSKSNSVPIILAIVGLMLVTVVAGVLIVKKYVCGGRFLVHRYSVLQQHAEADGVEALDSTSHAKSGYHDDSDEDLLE
UniProt Q69ZQ2: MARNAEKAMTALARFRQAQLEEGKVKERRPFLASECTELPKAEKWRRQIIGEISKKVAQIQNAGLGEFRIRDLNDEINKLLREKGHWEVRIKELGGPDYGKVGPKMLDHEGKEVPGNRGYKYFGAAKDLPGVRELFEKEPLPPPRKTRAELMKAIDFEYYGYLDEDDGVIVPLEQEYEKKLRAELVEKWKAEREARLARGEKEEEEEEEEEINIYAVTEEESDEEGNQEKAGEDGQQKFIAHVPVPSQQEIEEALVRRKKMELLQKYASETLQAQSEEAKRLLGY
UniProt Q6DIC0, whole entry: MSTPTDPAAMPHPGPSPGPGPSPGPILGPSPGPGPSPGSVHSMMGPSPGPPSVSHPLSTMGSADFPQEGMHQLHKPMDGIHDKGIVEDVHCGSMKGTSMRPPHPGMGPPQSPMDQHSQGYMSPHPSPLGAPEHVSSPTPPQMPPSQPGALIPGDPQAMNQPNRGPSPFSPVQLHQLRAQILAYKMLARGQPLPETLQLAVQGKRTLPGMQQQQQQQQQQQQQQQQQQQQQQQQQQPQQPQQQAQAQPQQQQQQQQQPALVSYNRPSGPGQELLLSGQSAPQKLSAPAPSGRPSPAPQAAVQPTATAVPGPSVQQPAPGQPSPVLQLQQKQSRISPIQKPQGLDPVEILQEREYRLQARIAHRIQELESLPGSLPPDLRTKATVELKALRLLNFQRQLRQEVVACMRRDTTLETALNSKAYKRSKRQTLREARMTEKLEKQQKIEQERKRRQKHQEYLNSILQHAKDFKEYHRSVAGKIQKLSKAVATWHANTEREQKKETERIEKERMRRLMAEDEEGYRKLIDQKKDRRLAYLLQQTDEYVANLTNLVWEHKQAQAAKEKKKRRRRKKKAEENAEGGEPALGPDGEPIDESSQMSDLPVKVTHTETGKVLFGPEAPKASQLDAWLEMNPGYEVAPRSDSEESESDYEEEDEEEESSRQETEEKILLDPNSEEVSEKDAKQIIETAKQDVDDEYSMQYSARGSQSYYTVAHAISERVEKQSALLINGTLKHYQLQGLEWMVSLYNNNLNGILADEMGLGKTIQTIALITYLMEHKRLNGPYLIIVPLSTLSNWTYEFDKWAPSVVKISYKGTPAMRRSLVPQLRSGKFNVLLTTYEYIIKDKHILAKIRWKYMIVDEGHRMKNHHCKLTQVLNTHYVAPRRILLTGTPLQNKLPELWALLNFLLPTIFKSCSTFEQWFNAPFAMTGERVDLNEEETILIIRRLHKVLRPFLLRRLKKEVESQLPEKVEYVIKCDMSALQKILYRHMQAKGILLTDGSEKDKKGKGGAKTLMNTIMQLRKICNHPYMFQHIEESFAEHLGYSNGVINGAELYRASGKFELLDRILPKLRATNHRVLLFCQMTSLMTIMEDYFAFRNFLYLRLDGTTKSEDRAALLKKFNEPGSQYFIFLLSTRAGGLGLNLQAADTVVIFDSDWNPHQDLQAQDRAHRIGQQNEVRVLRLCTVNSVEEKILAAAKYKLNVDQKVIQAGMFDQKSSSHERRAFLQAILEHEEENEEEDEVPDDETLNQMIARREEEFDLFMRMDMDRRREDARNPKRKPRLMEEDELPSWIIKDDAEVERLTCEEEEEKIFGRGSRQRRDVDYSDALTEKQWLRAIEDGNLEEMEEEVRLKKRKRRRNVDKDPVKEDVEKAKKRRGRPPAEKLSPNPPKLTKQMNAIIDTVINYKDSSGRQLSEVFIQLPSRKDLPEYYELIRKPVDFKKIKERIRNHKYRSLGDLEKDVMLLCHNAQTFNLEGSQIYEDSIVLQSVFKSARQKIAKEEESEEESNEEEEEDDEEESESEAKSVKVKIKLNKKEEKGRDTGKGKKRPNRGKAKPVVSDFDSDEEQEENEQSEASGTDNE
UniProt Q69ZS8: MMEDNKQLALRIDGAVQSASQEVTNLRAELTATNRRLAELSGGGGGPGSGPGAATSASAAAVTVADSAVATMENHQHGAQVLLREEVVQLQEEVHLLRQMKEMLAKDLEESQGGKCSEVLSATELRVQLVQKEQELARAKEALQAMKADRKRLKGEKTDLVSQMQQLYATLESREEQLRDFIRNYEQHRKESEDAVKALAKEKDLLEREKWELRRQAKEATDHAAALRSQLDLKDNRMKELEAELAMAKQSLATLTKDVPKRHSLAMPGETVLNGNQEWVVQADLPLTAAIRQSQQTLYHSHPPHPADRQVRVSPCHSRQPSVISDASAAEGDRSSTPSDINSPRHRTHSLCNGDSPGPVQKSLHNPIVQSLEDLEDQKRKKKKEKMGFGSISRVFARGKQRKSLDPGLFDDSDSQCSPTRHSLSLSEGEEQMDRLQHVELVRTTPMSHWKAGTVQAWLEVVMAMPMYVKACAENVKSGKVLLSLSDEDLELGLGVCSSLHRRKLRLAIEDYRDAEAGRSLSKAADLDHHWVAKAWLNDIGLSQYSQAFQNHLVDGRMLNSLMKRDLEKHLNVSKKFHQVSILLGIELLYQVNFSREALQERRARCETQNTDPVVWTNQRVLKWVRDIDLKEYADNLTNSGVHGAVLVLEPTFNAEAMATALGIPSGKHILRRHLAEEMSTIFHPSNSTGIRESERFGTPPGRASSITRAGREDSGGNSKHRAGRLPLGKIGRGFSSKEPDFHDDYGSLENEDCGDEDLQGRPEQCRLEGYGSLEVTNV
UniProt Q6PH08: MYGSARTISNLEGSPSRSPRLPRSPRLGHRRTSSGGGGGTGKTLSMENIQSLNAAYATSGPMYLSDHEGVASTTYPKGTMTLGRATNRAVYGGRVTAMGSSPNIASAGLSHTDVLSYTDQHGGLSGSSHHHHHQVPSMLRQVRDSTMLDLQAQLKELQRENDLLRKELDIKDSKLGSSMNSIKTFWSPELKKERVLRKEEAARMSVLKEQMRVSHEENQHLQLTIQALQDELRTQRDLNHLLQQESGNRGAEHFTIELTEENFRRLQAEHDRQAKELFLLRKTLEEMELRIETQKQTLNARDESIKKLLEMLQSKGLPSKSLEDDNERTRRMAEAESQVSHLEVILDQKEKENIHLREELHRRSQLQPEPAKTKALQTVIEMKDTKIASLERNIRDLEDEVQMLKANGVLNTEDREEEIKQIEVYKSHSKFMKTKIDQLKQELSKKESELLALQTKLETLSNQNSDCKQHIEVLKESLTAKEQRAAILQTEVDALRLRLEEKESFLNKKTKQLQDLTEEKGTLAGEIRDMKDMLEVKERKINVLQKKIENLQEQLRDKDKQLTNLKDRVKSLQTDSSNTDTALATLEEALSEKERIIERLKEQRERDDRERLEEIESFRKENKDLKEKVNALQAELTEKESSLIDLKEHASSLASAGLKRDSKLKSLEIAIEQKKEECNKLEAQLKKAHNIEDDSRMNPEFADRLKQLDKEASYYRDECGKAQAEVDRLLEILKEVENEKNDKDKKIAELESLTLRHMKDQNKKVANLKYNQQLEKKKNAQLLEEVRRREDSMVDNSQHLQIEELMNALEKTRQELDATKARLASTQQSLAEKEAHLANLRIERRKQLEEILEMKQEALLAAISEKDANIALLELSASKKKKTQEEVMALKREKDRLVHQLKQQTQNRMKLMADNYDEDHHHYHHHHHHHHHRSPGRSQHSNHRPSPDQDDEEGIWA

Some of the results follow. Small differences around the control level are noise.

Compound in this assay: CN[C@@H]1C[C@H]2O[C@@](C)([C@@H]1OC)n1c3ccccc3c3c4c(c5c6ccccc6n2c5c31)C(=O)NC4 [staurosporine]
Briefly: log2 fold change of tryptic peptide abundance, ligand vs vehicle (limited proteolysis) (log2 ratio); higher = more trypsin-susceptible (destabilized). Particulars: ligand concentration: 20 uM; sample: mouse liver crude lysate; replicate design: treated separately.
“UniProt Q6IRU2 (peptide sequence: MEILEMQLK, peptide start residue: 105)”: the log2 fold change amounted to 0.0813. “UniProt Q6GQT6 (peptide sequence: LPPESCLPSAKPVGRPAR, peptide start residue: 456)”: the log2 fold change stood at 0.392.

“UniProt Q6PDY0 (peptide sequence: QLQGHLGEIR, peptide start residue: 52)”: the log2 fold change amounted to 0.6.

On to “UniProt Q6A037 (peptide sequence: KAQSHTEQSMVER, peptide start residue: 428)”, for which the log2 fold change is -0.244.

Take “UniProt Q6NZQ2 (peptide sequence: QSIPVLLEGR, peptide start residue: 133)”: the log2 fold change is -0.334.

On to “UniProt Q6NVF0 (peptide sequence: GINVNQLHYR, peptide start residue: 504)”, for which the log2 fold change was 0.505. For “UniProt Q6PAJ1 (peptide sequence: GSLASGALDPTKVSELDLEK, peptide start residue: 474)”, the log2 fold change was -0.339. As to “UniProt Q6NXH3 (peptide sequence: NGTGPSVYK, peptide start residue: 201)”, the log2 fold change amounted to 0.313.

For the target “UniProt Q6PE54 (peptide sequence: IQDHSDTLKETG, peptide start residue: 768)”, the log2 fold change was found to be 0.26. To “UniProt Q6NXN1 (peptide sequence: RPTSNGVVSSPNSTSRPALPVK, peptide start residue: 65)” belongs -0.175; to “UniProt Q6A009 (peptide sequence: THLPDFLICK, peptide start residue: 860)”, 0.249; to “UniProt Q6NTA4 (peptide sequence: ATFLVISHYQCKEQR, peptide start residue: 209)”, -0.21.

Turning to “UniProt Q69ZS7 (peptide sequence: SIDKPFR, peptide start residue: 481)”, the log2 fold change stood at 0.243.

As to “UniProt Q6PDM1 (peptide sequence: KLAPEFSK, peptide start residue: 348)”, the log2 fold change worked out at 0.448. With “UniProt Q6P9Q6 (peptide sequence: HNQDSQHCSLSGDEEDELFK, peptide start residue: 1149)” the figure was -0.793.

For the target “UniProt Q6A0A9 (peptide sequence: SQGGVQPIPSQGGK, peptide start residue: 931)”, the log2 fold change was 0.098. “UniProt Q6NVF9 (peptide sequence: RELHGQSPVVTPCNK, peptide start residue: 147)”: the log2 fold change is -0.2. To “UniProt Q6P7W0 (peptide sequence: KHCLAVTDSSAAQEESEPCYRR, peptide start residue: 850)” belongs 0.794; to “UniProt Q6PDJ6 (peptide sequence: SASSSSHVDSIDNR, peptide start residue: 508)”, -0.215. To “UniProt Q6NXJ0 (peptide sequence: LDGEAWPGALDIEKEK, peptide start residue: 329)” belongs -0.636.

With “UniProt Q6P2L7 (peptide sequence: EGLGKRCEDDK, peptide start residue: 99)”, the log2 fold change was 0.0592. To “UniProt Q6PGH0 (peptide sequence: SDYPMTDGQLR, peptide start residue: 38)” belongs 0.0246; to “UniProt Q6KAU8 (peptide sequence: SASATSLTLSR, peptide start residue: 280)”, 0.507. On to “UniProt Q6NZF1 (peptide sequence: KLSVGGDSDPPLKR, peptide start residue: 287)”, for which the log2 fold change came out at 0.128. Take “UniProt Q6PHU5 (peptide sequence: YSVLQQHAEADGVEALDSTSHAK, peptide start residue: 790)”: the log2 fold change was -0.0762. With “UniProt Q6PCZ4 (peptide sequence: GHPAAVPGPDVPR, peptide start residue: 25)” the figure was 0.206. As for “UniProt Q6P2L6 (peptide sequence: KSLPASITMHK, peptide start residue: 477)”, the log2 fold change is 0.667. With “UniProt Q6PDL0 (peptide sequence: DEHLDFIQAHLRR, peptide start residue: 248)” the figure was -0.434. To “UniProt Q69ZQ2 (peptide sequence: DLNDEINK, peptide start residue: 72)” belongs -0.44; to “UniProt Q6NS52 (peptide sequence: CVARAPPSCIK, peptide start residue: 285)”, -0.127; to “UniProt Q6NSR3 (peptide sequence: LGELSAPGTR, peptide start residue: 232)”, 0.0353. As for “UniProt Q6DIC0 (peptide sequence: GPSPFSPVQLHQLR, peptide start residue: 164)”, the log2 fold change was -0.309.

For the target “UniProt Q69ZS8 (peptide sequence: AKEALQAMKADR, peptide start residue: 139)”, the log2 fold change was -0.0469. To “UniProt Q6PH08 (peptide sequence: LLEILKEVENEK, peptide start residue: 761)” belongs -0.329. To “UniProt Q6Q783 (peptide sequence: MNVSPVPTLR, peptide start residue: 34)” belongs -0.104; to “UniProt Q6P1H6 (peptide sequence: VDPGETSVGTYPDKGR, peptide start residue: 696)”, 0.248.
